Data as given in patent US10047091B2, “Ionic liquid, lubricating agent, and magnetic recording medium” (Dexerials Corporation, priority 2012, dated 2018).

Test: tape durability test (friction, still, shuttle)
Conditions: for Still durability after heating: after heating test at 100° C. for 10 min
[1] = −5° C., time until output decreased by −3 dB

SMILES | Still durability (40° C., 30% RH) | Still durability after heating (40° C., 30% RH) | Coefficient of friction after 100 times of shuttle runs (40° C., 90% RH) | Coefficient of friction after 100 times of shuttle runs (−5° C.) | Still durability after heating (−5° C.) | Still durability [1]
CCCCCCCCCCCCCCCCCCN.O=C(O)C(F)(F)C(F)(F)C(F)(F)C(F)(F)C(F)(F)C(F)(F)C(F)(F)F [Comparative ionic liquid 2, reference compound] | >60 min | 16 min | 0.25 | 0.21 | 12 min | >60 min
CCCCCCCCN.O=S(=O)(O)C(F)(F)F [Comparative ionic liquid 4, reference compound] | 39 min | – | 0.30 | 0.29 | – | 35 min
CC(C)CN.O=S(=O)(O)C(F)(F)F [Comparative ionic liquid 5, reference compound] | 25 min | – | 0.41 | 0.36 | – | 15 min
CCCCCCCCCCCCCCCCCCN.O=C(O)C(F)(F)C(F)(F)C(F)(F)C(F)(F)C(F)(F)C(F)(F)C(F)(F)F [Comparative ionic liquid 6, reference compound] | >60 min | 36 min | 0.25 | 0.22 | 45 min | >60 min
CCCCCCCCCCCCCCCCCCN.OCC(F)(F)C(F)(F)C(F)(F)C(F)(F)C(F)(F)C(F)(F)C(F)(F)F [Comparative ionic liquid 7, reference compound] | >60 min | 16 min | 0.26 | 0.23 | 12 min | >60 min
C1CCC2=NCCCN2CC1.O=S(=O)(O)C(F)(F)C(F)(F)C(F)(F)C(F)(F)C(F)(F)C(F)(F)C(F)(F)C(F)(F)F [Comparative ionic liquid 8, DBU pentadecafluorooctane sulfonic acid salt, reference compound] | 16 min | 8 min | 0.49 | 0.45 | 14 min | 18 min
C1CN=C2NCCCN2C1.O=S(=O)(O)C(F)(F)C(F)(F)C(F)(F)C(F)(F)C(F)(F)C(F)(F)C(F)(F)F [Comparative ionic liquid 9, TBD pentadecafluoro sulfonic acid salt, reference compound] | 14 min | 10 min | 0.55 | 0.5 | 12 min | 16 min
CCCCCCCCCCCCCCN.O=S(=O)(O)C(F)(F)F [Ionic liquid 6] | >60 min | – | 0.21 | 0.20 | – | >60 min
CCCCCCCCC=CCCCCCCCCN.O=S(=O)(O)C(F)(F)F [Ionic liquid 8] | >60 min | – | 0.22 | 0.22 | – | >60 min
CCCCCCCCCCCCCCCCCCN.O=S(=O)(O)C(F)(F)C(F)(F)C(F)(F)C(F)(F)C(F)(F)C(F)(F)C(F)(F)C(F)(F)F [Ionic liquid 10] | >60 min | >60 min | 0.23 | 0.19 | >60 min | >60 min
CCCCCCCCCCCCCCCC1CCCCN2CCCN=C12.O=S(=O)(O)C(F)(F)C(F)(F)C(F)(F)C(F)(F)C(F)(F)C(F)(F)C(F)(F)C(F)(F)F [Ionic liquid 11] | >60 min | >60 min | 0.23 | 0.2 | >60 min | >60 min
CCCCCCCCCCCCCCCCCCN.O=S(=O)(NS(=O)(=O)C(F)(F)C(F)(F)C(F)(F)C(F)(F)F)C(F)(F)C(F)(F)C(F)(F)C(F)(F)F [Ionic liquid 13, n-octadecylamine-bisnonafluorobutane sulfonylimide salt] | >60 min | >60 min | 0.22 | 0.2 | >60 min | >60 min
CCCCCCCCCCCCCCCCCCN.O=S1(=O)NS(=O)(=O)C(F)(F)C(F)(F)C1(F)F [Ionic liquid 14, n-octadecylamine-cyclo-hexafluoropropane-1,3-bis(sulfonyl)imide salt] | >60 min | >60 min | 0.24 | 0.21 | >60 min | >60 min
CCCCCCCCCCCCCCCCCCC1CCCCN2CCCN=C12.O=S(=O)(O)C(F)(F)C(F)(F)C(F)(F)C(F)(F)C(F)(F)C(F)(F)C(F)(F)C(F)(F)F (stereo not shown) [Ionic liquid 15, 6-n-octadecyl-1,8-diazabicyclo[5.4.0]-7-undecene (C18-DBU) pentadecafluorooctane sulfonic acid salt] | >60 min | >60 min | 0.26 | 0.22 | >60 min | >60 min
CCCCCCCCCCCCCCCCCCC1CCCCN2CCCN=C12.O=S1(=O)NS(=O)(=O)C(F)(F)C(F)(F)C1(F)F (stereo not shown) [Ionic liquid 16, C18-DBU cyclo-hexafluoropropane-1,3-bis(sulfonyl)imide salt] | >60 min | >60 min | 0.26 | 0.23 | >60 min | >60 min
CCCCCCCCCCCCCCCCCCN1CCCN2CCCN=C12.O=S(=O)(O)C(F)(F)C(F)(F)C(F)(F)C(F)(F)C(F)(F)C(F)(F)C(F)(F)C(F)(F)F [Ionic liquid 17, 7-n-octadecyl-1,5,7-triazabicyclo[4.4.0]-5-decene (C18-TBD) pentadecafluorooctane sulfonic acid salt] | >60 min | >60 min | 0.28 | 0.24 | >60 min | >60 min
CCCCCCCCCCCCCCCCCCN1CCCN2CCCN=C12.O=S1(=O)NS(=O)(=O)C(F)(F)C(F)(F)C1(F)F [Ionic liquid 18, C18-TBD cyclo-hexafluoropropane-1,3-bis(sulfonyl)imide salt] | >60 min | >60 min | 0.27 | 0.23 | >60 min | >60 min
